Source: PubChem BioAssay AID602196 (INSERM, 2012)

Screen: 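Modifiers of cisplatin sensitivity in A549 cells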
Cell system: human A549 lung cancer cells
Reagent: siRNA pair against human genes
Timing: 48 h transfection before cisplatin; time from cisplatin to read-out not stated
Challenge: cisplatin at a dose killing half of control-siRNA cells; exact dose and duration not given
Measurement: 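Shift in cisplatin death relative to control siRNA, from -50 (all cells die) to +50 (no cells die); siRNAs harmful on their own scored 0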
Direction: two-siRNA summed score (-2 to +2): higher = both siRNAs protect from cisplatin killing; -2 means both sensitise; mean protection from cisplatin (shift in death) and protection from cisplatin (shift in death), siRNA C and protection from cisplatin (shift in death), siRNA D: higher = protection from cisplatin killing
Call rule: 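Each siRNA scores 0 if harmful alone by LDH or WST-1, otherwise +1 if it reduces and -1 if it increases cisplatin killing; a gene is active when both siRNAs agree (sum +2 or -2)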
Calls: active = both siRNAs shift cisplatin killing the same way; inactive = no consistent shift, or siRNA harmful alone
The whole screen tested about 23,000 reagents; shown is a part drawn at random. Over the whole deposit, 455 (2%) got an active call. 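Active includes both protection and sensitisation; some change values fall well beyond the stated -50 to +50 range.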 Unmarked entries are inactive. No sequences are given here. Not stated in the record: the amount of reagent.

| target gene | two-siRNA summed score (-2 to +2) | mean protection from cisplatin (shift in death) (%) | protection from cisplatin (shift in death), siRNA C (%) | protection from cisplatin (shift in death), siRNA D (%) |
| --- | --- | --- | --- | --- |
| LOC441032 | 0 | 5.8 | 13.2 | -1.6 |
| KRT10-AS1 (KRT10 antisense RNA 1) | 0 | 3.1 | 6.5 | -0.2 |
| MASP1 (MBL associated serine protease 1) | -1 | -24.2 | -44.5 | -3.9 |
| ZBTB47 (zinc finger and BTB domain containing 47) | 0 | -5.9 | 11 | -22.8 |
| LOC389983 | 0 | 25.2 | 31.9 | 18.5 |
| PPP6C (protein phosphatase 6 catalytic subunit) | 0 | -3.1 | 2 | -8.2 |
| CSRNP1 (cysteine and serine rich nuclear protein 1) | 0 | 5.7 | 4.8 | 6.6 |
| LOC339760 (retired record) | 0 | 12.5 | 12.7 | 12.2 |
| IL6 (interleukin 6) | 1 | 14.3 | 15.9 | 12.8 |
| MARCKS (myristoylated alanine rich protein kinase C substrate) | 0 | 13.1 | 10.7 | 15.6 |
| METTL1 (methyltransferase 1, tRNA methylguanosine) | -1 | -7.6 | -0.7 | -14.4 |
| HSPB7 (heat shock protein family B (small) member 7) | 0 | -5.5 | -3.8 | -7.3 |
| ZNF175 (zinc finger protein 175) | 0 | -1.9 | -7.5 | 3.7 |
| MRPS34 (mitochondrial ribosomal protein S34) | 0 | -4 | -2.1 | -6 |
| SCOC (short coiled-coil protein) | 0 | -3.5 | 3.9 | -10.8 |
| CHRM3 (cholinergic receptor muscarinic 3) | -1 | -21.1 | -13.2 | -29 |
| VIM (vimentin) | 1 | 9.4 | 18 | 0.9 |
| RUNX2 (RUNX family transcription factor 2) | 0 | 4.5 | -6.1 | 15.1 |
| LOC400156 | 0 | 14.9 | 25.7 | 4.1 |
| ATIC | 1 | 11.7 | 14.4 | 8.9 |
| ADGRA3 (adhesion G protein-coupled receptor A3) | 0 | -3.1 | -13 | 6.7 |
| TRIM51HP (tripartite motif-containing 51H, pseudogene) | 0 | 11 | 0.6 | 21.5 |
| LOC442382 (ATPase plasma membrane Ca2+ transporting 1 pseudogene) | 0 | 8.5 | 6.1 | 10.9 |

Not a retest: an excerpt of the list.
| target gene | two-siRNA summed score (-2 to +2) | mean protection from cisplatin (shift in death) (%) | protection from cisplatin (shift in death), siRNA C (%) | protection from cisplatin (shift in death), siRNA D (%) |
| --- | --- | --- | --- | --- |
| CSRNP1 (cysteine and serine rich nuclear protein 1) | 0 | 5.7 | 4.8 | 6.6 |
| LOC339760 (retired record) | 0 | 12.5 | 12.7 | 12.2 |
